# The supplement of paper PMC12819154, “High-throughput peptide-centric local stability assay extends protein–ligand identification to membrane proteins, tissues and bacteria” (Nature Structural & Molecular Biology, 2025)
# Protein sequences, listed by entry. Tags and fused reporters are not part of them. Lines headed by an entry give the natural chain unless they say otherwise; changes in a name come on top.
# UniProt Q80VJ2: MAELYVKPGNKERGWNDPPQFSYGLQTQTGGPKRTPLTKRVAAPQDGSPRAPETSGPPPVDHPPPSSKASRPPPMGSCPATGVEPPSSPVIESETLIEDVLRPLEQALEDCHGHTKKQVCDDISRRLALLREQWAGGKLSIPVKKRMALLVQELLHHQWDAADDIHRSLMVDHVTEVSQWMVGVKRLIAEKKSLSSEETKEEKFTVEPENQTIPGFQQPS
# UniProt Q810B6: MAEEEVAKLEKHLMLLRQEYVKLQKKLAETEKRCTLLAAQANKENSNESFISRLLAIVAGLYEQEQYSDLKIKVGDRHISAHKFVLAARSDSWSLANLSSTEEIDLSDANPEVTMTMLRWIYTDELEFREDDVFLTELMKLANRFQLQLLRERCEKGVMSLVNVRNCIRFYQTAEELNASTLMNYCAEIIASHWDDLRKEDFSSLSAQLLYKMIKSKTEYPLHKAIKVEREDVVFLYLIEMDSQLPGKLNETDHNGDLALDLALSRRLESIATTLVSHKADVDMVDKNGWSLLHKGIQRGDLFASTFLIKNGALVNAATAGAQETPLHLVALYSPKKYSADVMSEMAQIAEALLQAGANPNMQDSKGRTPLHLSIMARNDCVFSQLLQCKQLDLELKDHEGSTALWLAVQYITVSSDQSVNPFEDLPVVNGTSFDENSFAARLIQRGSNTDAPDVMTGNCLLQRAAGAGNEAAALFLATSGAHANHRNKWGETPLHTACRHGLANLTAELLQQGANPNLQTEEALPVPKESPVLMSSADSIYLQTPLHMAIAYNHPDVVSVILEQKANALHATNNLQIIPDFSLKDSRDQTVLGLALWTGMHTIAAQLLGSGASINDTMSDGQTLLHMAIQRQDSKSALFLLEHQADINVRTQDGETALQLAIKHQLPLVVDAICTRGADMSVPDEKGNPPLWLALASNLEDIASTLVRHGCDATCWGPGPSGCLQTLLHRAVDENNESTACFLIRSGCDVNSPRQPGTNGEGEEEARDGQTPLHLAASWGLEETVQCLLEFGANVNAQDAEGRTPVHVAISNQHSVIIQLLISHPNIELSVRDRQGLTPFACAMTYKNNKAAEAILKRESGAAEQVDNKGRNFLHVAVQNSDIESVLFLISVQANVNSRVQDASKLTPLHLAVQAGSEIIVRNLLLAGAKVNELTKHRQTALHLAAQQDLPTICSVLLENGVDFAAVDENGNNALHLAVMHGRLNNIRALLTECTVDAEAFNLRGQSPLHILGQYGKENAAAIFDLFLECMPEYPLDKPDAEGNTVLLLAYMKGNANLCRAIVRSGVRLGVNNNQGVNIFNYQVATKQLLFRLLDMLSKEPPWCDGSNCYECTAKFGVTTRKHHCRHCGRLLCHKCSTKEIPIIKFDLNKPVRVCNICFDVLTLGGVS
# UniProt Q80WT5: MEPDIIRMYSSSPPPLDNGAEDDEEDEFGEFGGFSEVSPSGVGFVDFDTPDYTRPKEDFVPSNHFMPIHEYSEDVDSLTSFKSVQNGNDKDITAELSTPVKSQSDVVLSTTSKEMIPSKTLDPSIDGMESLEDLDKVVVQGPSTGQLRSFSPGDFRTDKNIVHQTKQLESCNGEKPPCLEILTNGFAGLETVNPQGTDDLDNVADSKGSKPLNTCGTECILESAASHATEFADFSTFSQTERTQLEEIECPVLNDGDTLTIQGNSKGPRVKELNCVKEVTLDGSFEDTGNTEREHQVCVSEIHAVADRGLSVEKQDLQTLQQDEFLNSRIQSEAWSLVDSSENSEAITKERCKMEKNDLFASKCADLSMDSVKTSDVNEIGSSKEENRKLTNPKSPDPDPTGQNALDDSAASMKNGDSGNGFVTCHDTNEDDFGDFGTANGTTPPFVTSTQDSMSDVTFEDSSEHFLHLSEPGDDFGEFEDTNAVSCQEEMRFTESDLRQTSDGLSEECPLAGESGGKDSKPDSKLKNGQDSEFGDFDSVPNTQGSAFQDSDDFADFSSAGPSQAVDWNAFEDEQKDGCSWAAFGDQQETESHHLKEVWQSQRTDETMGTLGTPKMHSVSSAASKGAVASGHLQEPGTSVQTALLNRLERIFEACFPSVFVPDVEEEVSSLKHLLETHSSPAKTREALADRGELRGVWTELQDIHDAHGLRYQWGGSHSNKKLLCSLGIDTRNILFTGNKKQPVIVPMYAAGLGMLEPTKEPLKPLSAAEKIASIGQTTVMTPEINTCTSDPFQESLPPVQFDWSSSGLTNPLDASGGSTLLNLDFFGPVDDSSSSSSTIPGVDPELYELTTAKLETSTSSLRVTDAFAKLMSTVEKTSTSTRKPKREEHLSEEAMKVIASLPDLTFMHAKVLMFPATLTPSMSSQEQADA
# UniProt Q80ZK9: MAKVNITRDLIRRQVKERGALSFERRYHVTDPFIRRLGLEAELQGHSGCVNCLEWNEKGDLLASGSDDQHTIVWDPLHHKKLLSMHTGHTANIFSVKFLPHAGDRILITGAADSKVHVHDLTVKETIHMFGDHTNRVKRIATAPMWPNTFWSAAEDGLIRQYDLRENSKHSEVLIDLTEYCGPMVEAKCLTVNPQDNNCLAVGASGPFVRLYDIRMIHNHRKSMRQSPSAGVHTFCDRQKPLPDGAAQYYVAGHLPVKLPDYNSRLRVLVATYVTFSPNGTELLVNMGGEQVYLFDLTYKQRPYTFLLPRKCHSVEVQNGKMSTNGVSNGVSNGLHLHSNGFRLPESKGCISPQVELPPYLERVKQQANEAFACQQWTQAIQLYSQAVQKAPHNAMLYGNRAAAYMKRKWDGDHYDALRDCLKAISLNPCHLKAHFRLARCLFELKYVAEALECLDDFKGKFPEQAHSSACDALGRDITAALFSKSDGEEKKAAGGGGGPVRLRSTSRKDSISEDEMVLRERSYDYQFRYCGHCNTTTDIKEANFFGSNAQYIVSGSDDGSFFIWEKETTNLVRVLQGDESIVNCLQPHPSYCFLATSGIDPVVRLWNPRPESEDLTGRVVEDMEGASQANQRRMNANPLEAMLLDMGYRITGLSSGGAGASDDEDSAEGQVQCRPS
# UniProt Q80WC1, whole entry: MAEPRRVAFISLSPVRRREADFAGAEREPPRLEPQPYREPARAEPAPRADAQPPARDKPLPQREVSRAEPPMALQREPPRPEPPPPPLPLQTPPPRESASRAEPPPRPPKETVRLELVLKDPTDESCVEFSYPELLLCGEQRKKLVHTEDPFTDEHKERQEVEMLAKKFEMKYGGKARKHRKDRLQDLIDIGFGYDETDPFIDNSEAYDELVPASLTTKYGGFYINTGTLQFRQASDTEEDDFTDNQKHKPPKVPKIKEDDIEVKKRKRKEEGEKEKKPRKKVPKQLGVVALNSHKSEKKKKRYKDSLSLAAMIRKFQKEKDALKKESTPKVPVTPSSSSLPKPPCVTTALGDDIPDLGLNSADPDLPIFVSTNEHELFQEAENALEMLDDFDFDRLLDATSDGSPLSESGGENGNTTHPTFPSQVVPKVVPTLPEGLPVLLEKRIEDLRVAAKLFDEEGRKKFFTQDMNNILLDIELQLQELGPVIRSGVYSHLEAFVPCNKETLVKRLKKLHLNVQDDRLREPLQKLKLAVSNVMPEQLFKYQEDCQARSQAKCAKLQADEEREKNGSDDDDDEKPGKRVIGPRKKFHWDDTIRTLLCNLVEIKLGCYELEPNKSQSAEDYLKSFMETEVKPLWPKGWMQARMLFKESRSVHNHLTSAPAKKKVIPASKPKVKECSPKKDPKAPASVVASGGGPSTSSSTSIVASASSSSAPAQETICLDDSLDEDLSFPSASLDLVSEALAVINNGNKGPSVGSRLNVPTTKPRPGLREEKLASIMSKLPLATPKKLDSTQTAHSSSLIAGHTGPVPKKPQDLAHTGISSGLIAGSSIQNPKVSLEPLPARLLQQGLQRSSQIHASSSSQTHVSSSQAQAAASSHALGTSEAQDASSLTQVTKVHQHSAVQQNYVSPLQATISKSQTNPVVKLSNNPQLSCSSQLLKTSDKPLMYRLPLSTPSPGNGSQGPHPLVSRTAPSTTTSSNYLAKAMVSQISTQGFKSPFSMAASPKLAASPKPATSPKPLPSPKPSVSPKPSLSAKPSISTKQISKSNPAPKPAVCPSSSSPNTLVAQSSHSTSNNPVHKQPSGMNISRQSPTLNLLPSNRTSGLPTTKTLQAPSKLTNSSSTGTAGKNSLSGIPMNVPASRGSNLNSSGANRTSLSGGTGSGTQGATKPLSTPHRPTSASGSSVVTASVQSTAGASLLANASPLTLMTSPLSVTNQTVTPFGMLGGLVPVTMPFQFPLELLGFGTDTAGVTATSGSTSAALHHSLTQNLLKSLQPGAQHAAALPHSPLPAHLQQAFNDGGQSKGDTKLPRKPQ
# UniProt Q8BHG9: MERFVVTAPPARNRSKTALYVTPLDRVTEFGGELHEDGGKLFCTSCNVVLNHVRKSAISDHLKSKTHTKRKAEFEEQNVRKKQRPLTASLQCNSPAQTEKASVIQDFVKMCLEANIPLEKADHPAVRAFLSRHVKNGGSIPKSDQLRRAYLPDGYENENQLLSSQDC
# UniProt Q8BHR2: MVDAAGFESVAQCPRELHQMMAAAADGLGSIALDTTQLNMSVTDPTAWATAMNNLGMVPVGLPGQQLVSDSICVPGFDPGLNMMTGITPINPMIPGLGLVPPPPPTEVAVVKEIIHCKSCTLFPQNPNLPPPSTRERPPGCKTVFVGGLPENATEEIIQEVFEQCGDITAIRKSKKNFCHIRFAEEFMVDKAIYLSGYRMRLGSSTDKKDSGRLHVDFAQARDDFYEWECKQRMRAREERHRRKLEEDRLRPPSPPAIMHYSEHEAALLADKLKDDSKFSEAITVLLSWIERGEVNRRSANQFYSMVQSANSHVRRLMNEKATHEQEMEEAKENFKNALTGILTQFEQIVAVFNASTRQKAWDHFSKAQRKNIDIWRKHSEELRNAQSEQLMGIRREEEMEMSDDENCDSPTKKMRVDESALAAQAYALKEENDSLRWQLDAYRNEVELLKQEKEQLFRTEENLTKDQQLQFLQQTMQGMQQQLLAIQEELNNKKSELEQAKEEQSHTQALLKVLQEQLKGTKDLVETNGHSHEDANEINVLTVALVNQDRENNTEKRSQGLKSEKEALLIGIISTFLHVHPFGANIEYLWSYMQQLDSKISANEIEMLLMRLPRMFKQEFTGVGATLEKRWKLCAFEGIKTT
# UniProt Q8BFP9, whole entry: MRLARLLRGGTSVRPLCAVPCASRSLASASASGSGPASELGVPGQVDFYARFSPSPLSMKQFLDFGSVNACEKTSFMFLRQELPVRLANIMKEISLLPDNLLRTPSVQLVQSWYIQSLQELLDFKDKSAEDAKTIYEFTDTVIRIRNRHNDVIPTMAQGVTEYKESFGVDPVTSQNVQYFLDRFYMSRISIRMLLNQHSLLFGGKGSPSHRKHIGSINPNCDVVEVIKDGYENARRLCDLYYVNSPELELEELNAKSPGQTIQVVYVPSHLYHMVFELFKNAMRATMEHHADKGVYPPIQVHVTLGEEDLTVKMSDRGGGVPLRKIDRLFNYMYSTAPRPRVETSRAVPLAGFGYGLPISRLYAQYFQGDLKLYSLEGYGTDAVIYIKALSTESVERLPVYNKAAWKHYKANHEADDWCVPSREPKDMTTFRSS
# UniProt Q811F1: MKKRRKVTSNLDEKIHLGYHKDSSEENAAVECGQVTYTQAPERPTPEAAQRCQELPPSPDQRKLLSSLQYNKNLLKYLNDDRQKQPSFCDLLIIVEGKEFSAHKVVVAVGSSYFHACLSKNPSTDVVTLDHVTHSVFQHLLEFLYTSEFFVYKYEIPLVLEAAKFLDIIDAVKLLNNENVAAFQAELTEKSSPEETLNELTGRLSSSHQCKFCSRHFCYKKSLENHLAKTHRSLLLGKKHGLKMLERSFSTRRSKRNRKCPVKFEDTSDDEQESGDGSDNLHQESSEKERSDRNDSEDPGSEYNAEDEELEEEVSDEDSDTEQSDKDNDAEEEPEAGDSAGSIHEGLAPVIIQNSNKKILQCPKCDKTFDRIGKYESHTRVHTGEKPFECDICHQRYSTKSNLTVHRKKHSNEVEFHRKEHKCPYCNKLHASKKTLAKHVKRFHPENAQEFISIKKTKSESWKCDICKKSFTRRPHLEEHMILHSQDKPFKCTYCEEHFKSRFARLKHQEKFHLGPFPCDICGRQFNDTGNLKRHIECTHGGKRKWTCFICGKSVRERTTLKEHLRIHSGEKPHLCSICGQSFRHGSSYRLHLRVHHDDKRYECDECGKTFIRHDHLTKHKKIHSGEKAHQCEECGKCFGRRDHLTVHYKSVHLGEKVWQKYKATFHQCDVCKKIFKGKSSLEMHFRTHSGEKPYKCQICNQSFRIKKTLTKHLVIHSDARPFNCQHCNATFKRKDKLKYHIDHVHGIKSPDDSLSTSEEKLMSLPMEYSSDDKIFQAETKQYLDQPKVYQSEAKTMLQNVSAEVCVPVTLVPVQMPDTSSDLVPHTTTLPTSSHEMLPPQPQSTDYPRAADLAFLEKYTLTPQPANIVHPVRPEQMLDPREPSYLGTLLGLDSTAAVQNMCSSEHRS
# The list shows a part of the results. Most values lie at the level of the controls, where differences are scatter.
# Compound: CN[C@@H]1C[C@H]2O[C@@](C)([C@@H]1OC)n1c3ccccc3c3c4c(c5c6ccccc6n2c5c31)C(=O)NC4 [staurosporine]
# Assay: log2 fold change of tryptic peptide abundance, ligand vs vehicle (limited proteolysis) (log2 ratio); higher = more trypsin-susceptible (destabilized)
# Conditions: ligand concentration: 20 uM; sample: mouse liver crude lysate; replicate design: treated separately
row,Target,log2 fold change
1,"UniProt Q80VJ2 (peptide sequence: VAAPQDGSPR, peptide start residue: 41)",0.131
2,"UniProt Q810B6 (peptide sequence: GRTPLHLSIMAR, peptide start residue: 367)",-0.468
3,"UniProt Q8BG79 (peptide sequence: TQVLEQSK, peptide start residue: 182)",-0.2
4,"UniProt Q80Y81 (peptide sequence: NVQENPAPAEKR, peptide start residue: 462)",0.9
5,"UniProt Q8BH95 (peptide sequence: AFAAGADIK, peptide start residue: 93)",-0.477
6,"UniProt Q8BGI5 (peptide sequence: KSDASTSAAPLK, peptide start residue: 2)",-0.712
7,"UniProt Q80WT5 (peptide sequence: YQWGGSHSNKK, peptide start residue: 712)",-0.196
8,"UniProt Q8BH60 (peptide sequence: HIAVLQAEVYGAR, peptide start residue: 193)",-0.195
9,"UniProt Q80ZK9 (peptide sequence: GKFPEQAHSSACDALGR, peptide start residue: 460)",0.365
10,"UniProt Q810D6 (peptide sequence: SGSPVATFK, peptide start residue: 342)",0.119
11,"UniProt Q80YD1 (peptide sequence: NDIYSVSR, peptide start residue: 376)",-0.202
12,"UniProt Q80WP8 (peptide sequence: ADSVAWNPHK, peptide start residue: 296)",0.171
13,"UniProt Q8BG60 (peptide sequence: HTYLANGQTK, peptide start residue: 220)",-0.291
14,"UniProt Q80WC1 (peptide sequence: LVHTEDPFTDEHKER, peptide start residue: 145)",-0.203
15,"UniProt Q8BHG9 (peptide sequence: FVVTAPPAR, peptide start residue: 4)",0.21
16,"UniProt Q8BHR2 (peptide sequence: MRLGSSTDKK, peptide start residue: 200)",-0.136
17,"UniProt Q8BFP9 (peptide sequence: ALSTESVERLPVYNK, peptide start residue: 389)",-0.18
18,"UniProt Q8BH52 (peptide sequence: LQGSGPLVLTEEEKR, peptide start residue: 258)",0.0914
19,"UniProt Q8BG05 (peptide sequence: KIFVGGIKEDTEEYNLR, peptide start residue: 127)",0.179
20,"UniProt Q80XI6 (peptide sequence: TVSPPPGISR, peptide start residue: 741)",0.584
21,"UniProt Q8BGW1 (peptide sequence: LFTVPWPVKGCTVK, peptide start residue: 113)",-0.717
22,"UniProt Q811F1 (peptide sequence: AADLAFLEK, peptide start residue: 850)",0.0264
23,"UniProt Q80WC3 (peptide sequence: AEEEAAVATASKK, peptide start residue: 466)",0.693
24,"UniProt Q8BGS1 (peptide sequence: FMDSAQVAHWLDGTK, peptide start residue: 88)",-0.287
25,"UniProt Q8BHD7 (peptide sequence: SQPVYIQYSNHR, peptide start residue: 94)",-0.122

# An excerpt of these results, as tab-separated lines.
row	Target	log2 fold change
11	UniProt Q80YD1 (peptide sequence: NDIYSVSR, peptide start residue: 376)	-0.202
12	UniProt Q80WP8 (peptide sequence: ADSVAWNPHK, peptide start residue: 296)	0.171
